Results as given in PubChem BioAssay AID602296 (Broad Institute, 2012).
Hit rate of the full screen: of about 2,000 compounds, about 190 (9.5%) were called active. About 14% were inconclusive and are not listed.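 Rule for the calls: active = fitted activation curve crossing 40% at a concentration no higher than the sample's top valid tested dose; inconclusive = flat fitted curve at 30% to 70% activation, or poor curve fit; inactive = signal decrease, flat curve within 30%, or the rest.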 The list lacks most of the strong results.

test: sustained heat shock response element induction – cell-based, mouse, luciferase, cherry-pick, dose, confirmation (AID 602296); conditions: NIH3T3-HGL HSF-1 response element luciferase, 48 h; at 26 µM (top of the series) unless noted;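 note: test compounds applied by themselves with no MG132 co-treatment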

SMILES	activation
CCn1cnc2c1c(=O)n(Cc1nnc3n1-c1ccccc1SC3)c(=O)n2Cc1ccccc1	inactive: -8.97%
O=[N+]([O-])c1ccc(/C=[N+](\[O-])[C@@H]2CCCC[C@@H]2/[N+]([O-])=C/c2ccc([N+](=O)[O-])o2)o1	inactive: -100%
CCCc1cc(=O)oc2cc(C)c(CN3CCCC3)c(O)c12	inactive: 3.75%
Cc1ccc2c(c1)/C(=C/c1ccc(F)cc1)C(=O)N2	inactive: -38.1%
CN(CC(=O)Nc1ccccc1Cl)CC(=O)Nc1c(F)cccc1F	inactive: -16%
COc1ccc2c(c1)c(C(=O)CN1CCCCC1)c(C)n2C	inactive: -1.51%
CCOc1ccc(S(=O)(=O)NCCSc2ccccc2)cc1	inactive: -2.3%
Cc1ccc(C(c2nnnn2C2CCCC2)N2CCc3ccccc32)cc1 (stereo not given)	inactive: 22.2%
Cc1cc2c(ncn2C)c(NS(=O)(=O)c2cc(Cl)ccc2Cl)c1C	inactive: -10.5%
O=C(CSc1nnc(-c2ccccc2)c(-c2ccccc2)n1)N1CCc2ccccc21	inactive: -17.6%
Cc1cc(C(=O)c2ccc(C(C)(C)C)cc2)c(NC(=O)CCl)s1	inactive: -108%
Cc1cccc(CN2CCC(C(=O)Nc3cccc(-c4cscn4)c3)CC2)n1	inactive: -16.6%
S=c1[nH]cc(-c2ccccc2)n1-c1ccccc1Cl	inactive: -7.21%
COC(=O)c1c(NC(=O)c2ccc([N+](=O)[O-])o2)sc2c1CCN(C(C)C)C2	inactive: -93.6%
Oc1ccc(-c2nc3cnccn3c2Nc2ccc3c(c2)OCCO3)cc1	inactive: 1.81%
Cc1cc(Sc2nnc(N)s2)c2ccccc2n1	inactive: -101%
C=CCn1c(CCNC(=O)c2ccc(Cl)c(Cl)c2)nnc1SCCOc1ccc(OC)cc1	inactive: -47%
COCCCNC(=O)c1c[nH]c2ccc(S(=O)(=O)N3CCc4ccccc43)cc2c1=O	inactive: -7.37%
COc1ccc(C)cc1NC(=O)CSc1nnc(COc2ccc(Cl)cc2)n1Cc1ccco1	inactive: -95.2%
Fc1ccc(C2NC(=S)NC3=C2N2CCC3CC2)cc1 (stereo not given)	inactive: -0.901%
COC(=O)/C(C#N)=C/c1c(N2CCCCCC2)nc2c(C)cccn2c1=O	inactive: -36.1%
CCc1cc(=O)oc2c(CNCc3ccccc3F)c(O)c(Cl)cc12	inactive: 2.3%
CC(C)N(Cc1nc(-c2ccc(Cl)cc2)no1)C(=O)CN(C)S(=O)(=O)c1ccc(Cl)cc1	inactive: -36%

Sorted by count of non-hydrogen atoms (high to low): some entries from above.
SMILES	activation
C=CCn1c(CCNC(=O)c2ccc(Cl)c(Cl)c2)nnc1SCCOc1ccc(OC)cc1	inactive: -47%
CC(C)N(Cc1nc(-c2ccc(Cl)cc2)no1)C(=O)CN(C)S(=O)(=O)c1ccc(Cl)cc1	inactive: -36%
COCCCNC(=O)c1c[nH]c2ccc(S(=O)(=O)N3CCc4ccccc43)cc2c1=O	inactive: -7.37%
COC(=O)/C(C#N)=C/c1c(N2CCCCCC2)nc2c(C)cccn2c1=O	inactive: -36.1%
CCCc1cc(=O)oc2cc(C)c(CN3CCCC3)c(O)c12	inactive: 3.75%

Later entries:

SMILES	activation
Oc1cc(-c2ccccc2)c2ccccc2c1	inactive: -26.3%
O=C(CCc1nnc(Cc2ccc(-c3ccccc3)cc2)o1)N1CCCC1	inactive: -14.5%
COc1ccc(C2=CC(=O)CC(c3ccc(F)cc3)C2)cn1 (stereo not given)	inactive: 1.78%
O=C(c1ccc(Br)cc1)N1CCCC(c2nc(-c3cccs3)no2)C1 (stereo not given)	inactive: -37.2%
O=C(O)CSc1cc(NS(=O)(=O)c2ccc(Br)cc2)c2ccccc2c1O	inactive: -84.1%
O=C(Cc1ccc([N+](=O)[O-])cc1)N1N=C(C2CC2)CC1(O)C(F)(F)F (stereo not given)	inactive: -21.4%
O=C(COC(=O)C1CC2C=CC1C2)Nc1ccc2c(c1)OC(F)(F)O2 (stereo not given)	inactive: -1.01%
O=C1/C(=C/c2ccccc2Cl)SC(=S)N1CCC(=O)N1CCCCC1CCO (stereo not given)	inactive: -83.9%
O=C(NCc1cc(C(F)(F)F)cc(C(F)(F)F)c1)C1CC(c2cccc([N+](=O)[O-])c2)=NO1 (stereo not given)	inactive: 14.3%
Cc1ccc(CNC(=O)c2cn(C3CCCCC3)c(=O)c3c2c2ccccc2n3C)o1	inactive: -20.5%
N#C/C(=C\c1ccc(Cl)cc1)c1nc2ccccc2o1	inactive: 21.5%
Cc1ccc(-c2noc(CCC(=O)Nc3cc(C)ccn3)n2)cc1	inactive: 0.829%
NC(=O)c1ccc(C(F)(F)F)n(Cc2cccc(Cl)c2)c1=O	inactive: -53.6%
CO/N=C/c1cc([N+](=O)[O-])ccc1Sc1ccc(C)cc1	inactive: -4.88%
O=C(Oc1ccc2c(c1)OCO2)c1cc2c(s1)CCC2	inactive: 0.52%
Cc1cc2c(c(/C=C/C(=O)c3ccccc3)c1)OC1(C=C2)Oc2ccccc2C(=O)N1C (stereo not given)	inactive: -105%
O=c1ccc2ccc(Oc3ccc([N+](=O)[O-])cc3[N+](=O)[O-])cc2o1	inactive: -98.4%
COc1ccc(NC(=O)CSc2nnc(Cn3cnc([N+](=O)[O-])n3)n2C)cc1	inactive: -0.468%
CCOc1ccc(C2C3=C(CCCC3=O)Nc3ccc4ncccc4c32)cc1 (stereo not given)	inactive: -38.2%
O=[N+]([O-])c1ccc(-n2nnnc2-c2ccccc2)c([N+](=O)[O-])c1	inactive: -99.1%
O=C(CNc1cccc2ccccc12)N/N=C/c1ccc([N+](=O)[O-])cc1	inactive: 12.1%
Cc1cccc(C2C3=C(CCCC3=O)N=C3c4ccccc4C(=O)C32)c1 (stereo not given)	inactive: -27.8%
Oc1ccccc1N=Nc1nc(-c2ccccc2)c(-c2ccccc2)[nH]1	inactive: -85.5%

SMILES	activation
CCOc1ccc(CNc2ccc(N3CCN(Cc4ccccc4)CC3)cc2)cc1	inactive: -9.36%
CCOC(=O)c1ccc(NC(=O)CCS(=O)(=O)c2ccc(Br)s2)cc1	inactive: -20.9%
Cc1cc(Cl)n2c(nc3cc(F)c(F)cc32)c1C#N	inactive: -104%
COc1ccc(Br)cc1CN1CCCCCCC1	inactive: -4.28%
CCN(CCCNC(=O)COc1cc(=O)n(C)c2ccccc12)c1cccc(C)c1	inactive: -2.33%
CCCCOC(=O)CCCc1ccc([N+](=O)[O-])cc1[N+](=O)[O-]	inactive: 3.01%
Cc1ccc(N=C(NOCc2ccc(Cl)cc2Cl)c2nonc2N)c(C)c1	inactive: -41.7%
Cc1ccc(/C=C/C(=O)Nc2ccc([N+](=O)[O-])c(NC(=O)/C=C/c3ccc(C)o3)c2)o1	inactive: -13.5%
CC(Oc1ccc(Cl)cc1Cl)C(=O)NCCCCc1ccccc1 (stereo not given)	inactive: -48.6%
CCOC(=O)CC(=O)CSCC(=O)Nc1ccc(C)cc1	inactive: -2.4%
COCCCn1c(C(=O)NC2CCCCC2C)cc2c(=O)n3cccc(C)c3nc21 (stereo not given)	inactive: -5.49%
CN(CCc1ccccc1)C(=O)c1cc(COc2cccc(C(F)(F)F)c2)on1	inactive: 7.01%
CCOC(=O)/C(C#N)=C/c1cn(CCC(=O)O)nc1-c1ccc(Cl)cc1	inactive: -1.89%
O=S1(=O)c2cccc3cccc(c23)N1Cc1nnc(-c2ccccc2Br)o1	inactive: -6.01%
Cc1cc(C(=O)CCl)c(C)n1CCc1ccc(Cl)cc1	inactive: -103%
CCN(CC)C(=S)Nc1ccc(Cl)c(Cl)c1	inactive: -6.29%
CN(C)c1ccc(C(C[N+](=O)[O-])c2c(N)n(C)c(=O)n(C)c2=O)c(F)c1C#N (stereo not given)	inactive: -2.77% [at 6 µM]
O=C(Nc1ccccc1F)C(=Cc1sc(N2CCOCC2)nc1-c1ccccc1)C(=O)Nc1ccccc1F	inactive: -13.9%
N/C(=N\c1nc2c(c(=O)[nH]1)CCC2)Nc1ccccc1C(F)(F)F	inactive: 2.14%
CCOC(=O)C1=C(C)Nc2ncnn2C1c1ccc2c(c1)OCO2 (stereo not given)	inactive: -2.17%
COc1ccc(NC(=O)c2sccc2SCc2cccc(C(F)(F)F)c2)cc1	inactive: -23.8%
COc1ccccc1NC(=O)Nc1nc(CC(=O)N2CCN(c3ccccc3)CC2)cs1	inactive: -49.6%
CC(Sc1nnc2ccccn12)C(N)=O (stereo not given)	inactive: -9.32%

Quoted at random: 2 entries already listed
SMILES	activation
Cc1cc(Cl)n2c(nc3cc(F)c(F)cc32)c1C#N	inactive: -104%
Cc1ccc(N=C(NOCc2ccc(Cl)cc2Cl)c2nonc2N)c(C)c1	inactive: -41.7%

(list continues)

SMILES	activation
O=C(CCN1CCc2ccccc2C(c2ccccc2)C1)c1ccc2c(c1)OCCO2 (stereo not given)	inactive: -101%
COc1cccc(C(=O)c2c(C)c(CCC#N)n3ccccc23)c1OC	inactive: -4.16%
COc1ccc(N(CC(=O)N2CCc3ccccc32)S(=O)(=O)c2c(C)noc2C)cc1	inactive: -3.72%
Cc1ccccc1CS(=O)(=O)c1nnc([C@H](CC(C)C)NC(=O)OC(C)(C)C)o1	inactive: -104%
Cc1ccc(S(=O)(=O)Nc2cccc3ncccc23)s1	inactive: -106%
CN(C)c1ccc(C(CNC(=O)c2ccccc2)c2c[nH]c3ccccc23)cc1 (stereo not given)	inactive: -28.5%
CCc1ccccc1NC(=O)CC(c1ccc(OC)cc1)n1cccc1 (stereo not given)	inactive: -14.2%
S=c1[nH]c(-c2ccc(Br)cc2)cn1CCc1ccccc1	inactive: -16.7%
CC(C)(C)c1cccc(/C=N/O)c1O	inactive: -3.67%
Cc1ccc(S(=O)(=O)N(C)C)cc1NC(=O)COC(=O)c1c(C)noc1C	inactive: -11.6%
CC1(C)CN(c2cccc(Br)c2)C1=O	inactive: -9.54%
COc1cc(/C=C2\SC(=S)N(Nc3ncc(C(F)(F)F)cc3Cl)C2=O)ccc1O	inactive: -13%
COC(=O)c1cnc2c(c(C)nn2C)c1OC	inactive: 9.55%
O=C1CSC(=S)N1/N=C/c1cccc(C(F)(F)F)c1	inactive: 19%
COc1ccc(C2(c3ccc(OC)cc3)NC(=O)N(CC(=O)N(C)c3ccccc3)C2=O)cc1	inactive: -1.93%
COC(=O)CN1C(c2cccc(Cl)c2)=Nc2ccc(Cl)cc2C1c1ccccc1 (stereo not given)	inactive: -58.3%
O=S(=O)(Nc1cccc2ccccc12)c1cccc2nonc12	inactive: 2.78%
Cc1cc(C)cc(-n2c3nc4ccccc4nc3c3c(=O)n(Cc4ccco4)cnc32)c1	inactive: -95.5%
S=C(NCc1ccco1)N1CCN(c2ccccc2Cl)CC1	inactive: -2.45%
NCCCn1c(C(=O)c2cc(Cl)c(N)c(Cl)c2)c2ccc([N+](=O)[O-])cc2[n+]1[O-]	inactive: -15.3%
CCOC(=O)c1c(C)[nH]c(C)c1C(=O)COc1ncnc2cc([N+](=O)[O-])ccc12	inactive: -4.25%
